Data set [1] in a line: general procedure: solution-phase peptide synthesis; EDC (symmetrical anhydride)/DMAP; DCC/HOBt; BOP-Cl; DPPA for cyclization.
In data set [2] the test system is DNA synthesis in Nb2 node lymphoma cells. The data set can be described thus: Inhibition of ongoing DNA synthesis in prolactin-stimulated Nb2 cells. In kind it is cell-based, rat. Here is the method:
Also inhibitions of protein and DNA synthesis of several compounds were measured using Nb2 node lymphoma cells which were stimulated by a treatment of cells with prolactin. (ibid.)
^a Nb2 cells were stimulated with prolactin for 24 h, then exposed to
^b 50% Inhibitory concentration, calculated with linear regression

Data set [3] deals with Nb2 cells, rat T-cell node lymphoma. The data set can be described thus: Competitive binding with [3H]didemnin B to Nb2 cells. Here is the method: The immunosuppressive assay was performed by measuring competitive binding of tested compounds with [^3 H]didemnin B to Nb2 cells, rat T-cell node lymphoma. See, Russell, D. H., et al., J. Immunology, 1987, 138, 276-284.
^a Competing didemnins incubated with approximately 25 ng of [^3

Numbered stars: 1 amine (or outer) side, 2 acyl side, 3 side chain; on linkers, the order of the positions; unused ones are H or OH. Bridge positions count the residues as written; N and C are the ends. Square brackets hold non-standard residues; d marks the D form. Peptide text beside a SMILES is read from it. * marks the point of attachment. X4 = CC[C@H](C)[C@@H](N[*:1])[C@@H](O)CC(=O)O[C@@H](C(=O)[C@H](C)C(=O)[*:2])C(C)C; X1 = CC[C@H](C)[C@@H](N[*:1])[C@@H](O)CC(=O)O[C@H](C(=O)[C@H](C)C(=O)[*:2])C(C)C; X3 = CC[C@H](C)[C@H](N[*:1])[C@@H](O)CC(=O)O[C@H](C(=O)[C@H](C)C(=O)[*:2])C(C)C; NMeY = CN[C@@H](Cc1ccc(O)cc1)C(=O)O; aThr = C[C@H](O)[C@H](N)C(=O)O; dNMeL = CN[C@H](CC(C)C)C(=O)O; Isobutyryl = CC(C)C(=O)*; Propionyl = CCC(=O)*

With [HexahydroMe2 Tyr^5 ]didemnin B, the step yield in data set [1] (late stage modification step) is recorded as 19.6%.
[L-Ala^8 ]didemnin B displayed a step yield in data set [1] (late stage modification step) of 97%.
Take `CC[C@H](C)[C@H]1NC(=O)[C@@H](NC(=O)[C@@H](CC(C)C)N(C)C(=O)[C@@H]2CCCN2C(=O)[C@H](C)O)[C@@H](C)OC(=O)[C@H](Cc2ccc(O)cc2)NC(=O)[C@@H]2CCCN2C(=O)[C@H](CC(C)C)NC(=O)[C@@H](C)C(=O)[C@H](C(C)C)OC(=O)C[C@@H]1O` [Didemnin N (13), Didemnin N]: the “Ratio, Log IC50 of (DNA/Protein) synthesis” value in data set [2] was -0.70.
On to `CC[C@H](C)[C@H]1NC(=O)[C@@H](NC(=O)[C@@H](CC(C)C)N(C)C(=O)[C@@H]2CCCN2C(=O)C(C)C)[C@@H](C)OC(=O)[C@H](Cc2ccc(OC)cc2)N(C)C(=O)[C@@H]2CCCN2C(=O)[C@H](CC(C)C)NC(=O)[C@@H](C)C(=O)[C@H](C(C)C)OC(=O)C[C@@H]1O` [[Isobutyryl^9]didemnin B] (Isobutyryl-P[dNMeL]T[X1]LP[NMeY](Me); ester 3-C), for which the “Ratio of IC50 of [[3H]didemnin B binding/L1210 growth]” value in data set [3] is recorded as 485.
Take `CC[C@H](C)[C@H]1NC(=O)[C@@H](NC(=O)[C@@H](CC(C)C)N(C)C(=O)[C@@H]2CCCN2C(=O)C(C)O)[C@@H](C)OC(=O)[C@H](Cc2ccc(OC)cc2)N(C)C(=O)[C@@H]2CCCN2C(=O)[C@H](CC(C)C)NC(=O)[C@@H](C)C(=O)[C@H](C(C)C)OC(=O)C[C@@H]1O` (stereo partly shown) [Didemnin B (17), Didemnin B, reference compound]: in data set [2], the “Ratio, Log IC50 of (DNA/Protein) synthesis” value was 0.31. In addition, the “Ratio of IC50 of [[3H]didemnin B binding/L1210 growth]” value in data set [3] is recorded as 293.
Compound [Hexahydro-N-MePhe^5 ]didemnin A registered a step yield in data set [1] (late stage modification step) of 31%.
With `CC[C@H](C)[C@H]1NC(=O)[C@@H](NC(=O)[C@@H](CC(C)C)NC)[C@@H](C)OC(=O)[C@H](Cc2ccc(OC)cc2)N(C)C(=O)[C@@H]2CCCN2C(=O)[C@H](CC(C)C)NC(=O)[C@@H](C)C(=O)[C@H](C(C)C)OC(=O)C[C@@H]1OC(C)=O` [O-Acetyldidemnin A (114), O-Acetyldidemnin A], in data set [2], the “Ratio, Log IC50 of (DNA/Protein) synthesis” value was -0.57.
As to “Z-D-Me-Leu-Thr-OTMSe BOC-D-Pro-MeTyr(Me)”, the step yield in data set [1] (coupling step) was 70%.
“N-(benzyloxycarbonyl-D-prolyl) didemnin A” yielded a step yield in data set [1] (coupling step) of 89%.
[Acetyl^9 ]didemnin B registered a step yield in data set [1] (coupling step) of 88%.
For PhePyruv-Pro Didemnin A, the step yield in data set [1] (coupling step) is given as 85%. The “final HPLC purity” value in data set [1] (coupling step, silica gel TLC, reversed phase HPLC) was found to be 96% homogeneity.
For the compound `CC[C@H](C)[C@H]1NC(=O)[C@@H](NC(=O)[C@@H](CC(C)C)N(C)C(=O)[C@H]2CCCN2C(=O)C(C)C)[C@@H](C)OC(=O)[C@H](Cc2ccc(OC)cc2)N(C)C(=O)[C@@H]2CCCN2C(=O)[C@H](CC(C)C)NC(=O)[C@@H](C)C(=O)[C@H](C(C)C)OC(=O)C[C@@H]1O` [[Isobutyryl^9 -D-Pro^8]didemnin B] (Isobutyryl-[dP][dNMeL]T[X1]LP[NMeY](Me); ester 3-C), the “Ratio of IC50 of [[3H]didemnin B binding/L1210 growth]” value in data set [3] is listed as 18.
In data set [1] (late stage modification step), [D-Pro^8 ]didemnin B gave a step yield of 97%.
In the case of [Isobutyryl^9 ]didemnin B, in data set [1] (coupling step), the step yield was 28%.
As to `CCC(=O)N(C)[C@H](CC(C)C)C(=O)N[C@@H]1C(=O)N[C@H]([C@@H](C)CC)[C@@H](O)CC(=O)O[C@@H](C(C)C)C(=O)[C@H](C)C(=O)N[C@@H](CC(C)C)C(=O)N2CCC[C@H]2C(=O)N(C)[C@@H](Cc2ccc(OC)cc2)C(=O)O[C@@H]1C` [(N-Propionyl)Didemnin A (98), N-propionyl-didemnin A] (Propionyl-[dNMeL]T[X1]LP[NMeY](Me); ester 2-C), the “Ratio of IC50 of [[3H]didemnin B binding/L1210 growth]” value in data set [3] worked out at 596.
[Isobutyryl^9 -D-Pro^8 ]didemnin B returned a step yield in data set [1] (coupling step) of 42%.
Compound BOC-Isl(T)-Hip-Leu-Pro-OH gave a step yield in data set [1] (late stage modification step) of 75%.
[Propionyl^9 ]didemnin B showed a step yield in data set [1] (coupling step) of 93%.
For the compound `CC[C@H](C)[C@H]1NC(=O)[C@@H](NC(=O)[C@@H](CC(C)C)NC)[C@@H](C)OC(=O)[C@H](Cc2ccc(OC)cc2)N(C)C(=O)[C@@H]2CCCN2C(=O)[C@H](CC(C)C)NC(=O)[C@@H](C)C(=O)[C@@H](C(C)C)OC(=O)C[C@@H]1O` [Epididemnin A (15), Epididemnin A] (H-[dNMeL]T[X4]LP[NMeY](Me); ester 2-C), the “Ratio, Log IC50 of (DNA/Protein) synthesis” value in data set [2] came out at 3.
Turning to [D-Thr^1 ] DIDEMNIN A, the step yield in data set [1] (late stage modification step) stood at 85%. The “crude purity (method not given)” value in data set [1] (late stage modification step, silica gel TLC, reversed phase HPLC) is given as “more than 92% pure”.
In turn, [Hexahydro-N-MePhe^5 ]didemnin B returned a step yield in data set [1] (late stage modification step) of 32%.
In turn, “Z-D-MeLeu-Thr-OTMSe BOC-Isl(T)-Hip-Leu-Pro-D-MeTyr(Me)” registered a step yield in data set [1] (coupling step) of 59.3%.
Turning to `CC[C@H](C)[C@H]1NC(=O)[C@@H](NC(=O)[C@@H](CC(C)C)N(C)C(=O)[C@@H]2CCCN2C(C)=O)[C@@H](C)OC(=O)[C@H](Cc2ccc(OC)cc2)N(C)C(=O)[C@@H]2CCCN2C(=O)[C@H](CC(C)C)NC(=O)[C@@H](C)C(=O)[C@H](C(C)C)OC(=O)C[C@@H]1O` [[Acetyl^9]Didemnin B (103), [Acetyl^9]didemnin B] (Ac-P[dNMeL]T[X1]LP[NMeY](Me); ester 3-C), the “Ratio of IC50 of [[3H]didemnin B binding/L1210 growth]” value in data set [3] is recorded as 315.
In the case of [D-Pro^5 ] didemnin A, the step yield in data set [1] (late stage modification step) is given as 90%.
As for `CC[C@H](C)[C@H]1NC(=O)[C@@H](NC(=O)[C@@H](CC(C)C)NC)[C@@H](C)OC(=O)[C@H](Cc2ccc(OC)cc2)N(C)C(=O)[C@@H]2CCCN2C(=O)[C@H](CC(C)C)NC(=O)[C@@H](C)C(=O)[C@H](C(C)C)OC(=O)C[C@@H]1O` [Didemnin A (1), Didemnin A, reference compound] (H-[dNMeL]T[X1]LP[NMeY](Me); ester 2-C), the “Ratio, Log IC50 of (DNA/Protein) synthesis” value in data set [2] is on record as 1.45. Also, in data set [3], the “Ratio of IC50 of [[3H]didemnin B binding/L1210 growth]” value was determined as 1000.
In the case of BOC-Isl-(TBDMS)-Hip-Leu-Pro-OTMSE, in data set [1] (coupling step), the step yield came to 78%.
Compound [H2 (2S,3S,4S)Hip^2 ]didemnin B came in with a step yield in data set [1] (late stage modification step, conversion) of 47% conversion.
The compound [HexahydroMe2 Tyr^5 ]didemnin A showed a step yield in data set [1] (late stage modification step) of 34%.
Take `CC[C@H](C)[C@@H]1NC(=O)[C@@H](NC(=O)[C@@H](CC(C)C)N(C)C(C)=O)[C@H](C)OC(=O)[C@H](Cc2ccc(OC)cc2)N(C)C(=O)[C@@H]2CCCN2C(=O)[C@H](CC(C)C)NC(=O)[C@@H](C)C(=O)[C@H](C(C)C)OC(=O)C[C@@H]1O` [N-Acetyldidemnin A (54), N-Acetyl didemnin A] (Ac-[dNMeL][aThr][X3]LP[NMeY](Me); ester 2-C): the “Ratio, Log IC50 of (DNA/Protein) synthesis” value in data set [2] worked out at 0.73. The “Ratio of IC50 of [[3H]didemnin B binding/L1210 growth]” value in data set [3] is 190.

(Values after patent US5294603A (The Board of Trustees of The University of Illinois, priority 1992, dated 1994).)
